Experimental data from patent US20120020891A1, “METABOLITES FOR ORAL HEALTH AND USES THEREOF” (Colgate-Palmolive Company, priority 2009, published 2012).

Assay: Metabolite expression profiling (GC/MS and LC/MS) of gingival crevicular fluid from healthy, gingivitis and periodontitis sites
Parameters: species or system human

In the case of Maltotriose, the “fold decrease in level between gingivitis and healthy” value (G vs H) is reported as 0.90 fold, the “fold decrease in level between periodontitis and healthy” value (P vs H) is reported as 0.59 fold and the “MEAN G (relative metabolite level)” value (gingivitis sites (G), relative quantitated value adjusted for sample volume) is reported as 1.22. For the same substance, the “MEAN H (relative metabolite level)” value (healthy sites (H) of chronic periodontitis subjects, relative quantitated value adjusted for sample volume) was 1.35 and the “MEAN P (relative metabolite level)” value (periodontitis sites (P), relative quantitated value adjusted for sample volume) was 0.74.
